Results published in PubChem BioAssay AID493014 (National Center for Advancing Translational Sciences (NCATS), 2011).
The whole screen tested about 340,000 compounds, of which about 170 (0.05%) were called active. This list was built around the results that the source calls inconclusive (neither active nor inactive); the mix of calls is not that of the screen. Calls follow the shape of the dose curve; as a rule, active = well fitted inhibition curve with a large enough effect in the signal ratio, with a control signal flat (not every such curve was filed as active); inconclusive = small, poorly fitted or top-dose-only effect, or effect the other way, or a change in a side signal; inactive = flat fitted curve, though single readings scatter; the % refers to the signal ratio. Where the call is inconclusive, the potency comes from a doubtful curve fit.

Assay: qHTS Assay to Find Inhibitors of Chronic Active B-Cell Receptor Signaling;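 as to activity change, negative = inhibition: plate controls were basal doxycycline-induced cells for no effect and cells given 10 µM MG132 for full effect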
Conditions: ABC-DLBCL IkBa-CBG/CBR reporter, luminescence ratio (green luciferase fused to IkBa over red control in TMD8 lymphoma cells), 4 h; activity change, negative = inhibition: at 46.1 µM (top of the series)
Source text: NIH Molecular Libraries Probe Production Network [MLPCN] NIH Chemical Genomics Center [NCGC] MLPCN Grant: 1 R03 DA031086-01A1 PI Name: Dr. R. Eric Davis NCGC Assay Overview: Diffuse large B-cell lymphoma (DLBCL) is the most common category of non-Hodgkin lymphoma, with ~20,000 new cases per year in the United States. DLBCL should be regarded as a collection of different neoplasms. Microarray gene expression analysis has defined two principal types of DLBCL, named for their similarity to normal B cell stages or activation states: a germinal center B-cell (GCB) type, and an activated B-cell (ABC) type. In ABC-DLBCL, a constitutive high-level activity of the NF-kappaB family of transcription factors has been observed (1) and NF-kappaB target genes are more highly expressed in ABC primary tumors than in GCB tumors. Functional studies have shown a constitutive high-level activity of the IkappaB (inhibitor of kappa-B) kinase (IKK) complex. […] Further analysis of DLBCL primary tumors for NF-kappaB target gene expression imply that although CARD11 is required for constitutive IKK activity in all ABC-DLBCL lines, mutations in CARD11 may be the root cause of IKK activation only in lines or tumors with such mutations. In other words, CARD11 mutations may explain NF-kappaB activation in only 10% of ABC-DLBCL cases. […] This process has been termed 'chronic active BCR signaling' (CABS). The goal of this screen is to find small-molecule inhibitors of the CABS pathway found in ABC-DLBCL lines using a cell-based assay that measures IkappaBalpa stability, which has already been extensively validated in the OCI-Ly3 line (PubChem AID:445; REF: 4). […] The assay uses green (CBG68) and red (CBR) emitting beetle luciferases [Chroma-GloTM developed by Promega Corp.] where the green luciferase is fused to IkappaBalpha and the red luciferase is present in its native state. Both luciferase genes are stably present in the TMD8 human ABC DLBCL cell line, but their expression is under the control of tetracycline-inducible promoters. Following the addition of doxycycline to induce expression of the luciferases, the green luminescence in control cultures rises only slowly because the CBG fusion partner IkappaBalpha is targeted by IKK activity for rapid degradation. In contrast, green luminescence rises rapidly in the presence of proteasome inhibitors or IKK inhibitors. The rise in red luminescence of CBR is not affected by proteasome or IKK inhibitors, and serves as normalization for cell number and nonspecific effects. Compounds were screened as a concentration-titration series that ranged from 46 uM to 3 nM.
NCGC Assay Protocol Summary: Cells were seeded in 1536-well plates at 5000 cells/4uL in IMDM medium containing 0.5% FBS, w/o phenol red, 1% penicillin/streptomycin. Then, 23 nL of compounds or DMSO were delivered to each well using a pin tool. One uL 20ng/ml doxycycline was then dispensed into white solid 1536-well plates and the plates were incubated at 37C/5% C02 in a cell incubator for 4 hrs. Then 4 uL luminescent substrate mix (in-house prepared: 150 mM Tris-Cl, pH 7.6, 3 mM MgCl2, 1% Triton X-100, 5 mM DTT, 0.2 mM CoA, 0.15 mM ATP, 5 mM D-luciferin, final concentrations) was added to each well. The plate was incubated at r.t. for 10-15 min. The plates were measured on a ViewLux plate reader for green luminescence (540/20 nm filter) and red luminescence (618/8 nm filter). The green and red luminescent signals were corrected for red and green luminescence filter overlap using previously determined filter calibration constants (determined using the procedure outlined in the Promega Technical Manual; REF 4). The %Activity was determined from the ratio of corrected green/red luminescent values. MG132 were used as control. […] Red luminescent %Activity was normalized to the difference between red luminesence in basal cells (0%Activity) and zero luminescence (-100% Activity). […]
Potency is read from the fitted curve at half-maximal effect.

Structure (SMILES) | activity change, negative = inhibition | Potency
NC(=S)Nc1cnc2ccccc2c1 | inconclusive: 9.17% | –
COc1ccc(C(=O)N(Cc2ccccc2)c2cccc(C)c2)cc1 | inactive: 10.8% | –
COc1ccc(NC(=O)CN(C)CC(=O)NC(=O)NC2CCCCC2)cc1 | inactive: -0.417% | –
CCc1ccccc1NC(=S)NC1CC2CCC(C1)N2Cc1ccc(F)cc1 (stereo not given) | inconclusive: 0.253% | –
Cc1ccccc1-n1nnnc1SC(C)C(=O)NC1CCCc2ccccc21 (stereo not given) | inactive: -0.67% | –
O=C(CCNS(=O)(=O)c1cccs1)N1CCN(c2cccc(C(F)(F)F)c2)CC1 | inconclusive: 7.4% | –
O=C(NC1CCCCCC1)C(Cc1ccccc1)n1cccc1 (stereo not given) | inconclusive: 9.12% | –
COC(=O)C1=C(C)N(c2ccc(F)c(Cl)c2)C(=O)C1 | – | inconclusive: 14.6 µM [falling, partial curve, poor fit]
Nc1nnc(SCn2nnc3ccccc3c2=O)s1 | inconclusive: 4.85% | –
O=C(COc1ccccc1)N1CCN(c2ccccc2)CC1 | inactive: 5.44% | –
COc1ccc(NC(=O)c2oc3ccccc3c2CSC)cn1 | inconclusive: -2.26% | –
NC(=O)c1cc2cc([N+](=O)[O-])ccc2oc1=O | inconclusive: 4.75% | –
COc1cc(S(=O)(=O)n2nc(C)cc2C)c(OC)cc1Cl | – | inconclusive: 25.9 µM [rising, partial curve, poor fit]
CCOC(=O)c1cc(-c2ccccc2)n(CC(=O)Nc2ccc(OCC)cc2)c1C | inactive: 4.56% | –
CCN(c1ccccc1)S(=O)(=O)c1ccc(C(=O)N2CC(C)CC(C)C2)cc1 (stereo not given) | inconclusive: 10% | –
Cc1cccc(C)c1N=C1SC(CC(=O)Nc2c(C)cccc2C)C(=O)N1CCc1ccccn1 (stereo not given) | inactive: 0.144% | –
CCOc1ccc(OCc2cccc(C(=O)N/N=C/c3cccnc3)c2)cc1 | – | inconclusive: 18.4 µM [falling, single point]
CCC(C)c1ccc(OCCn2cc(/C=N/NC(=O)CSc3nnc(C)s3)c3ccccc32)cc1 (stereo not given) | – | inconclusive: 3.26 µM [falling, partial curve, poor fit]
CCOc1ccc(C(=O)CCN2CCCCC2)cc1 | inconclusive: 7.99% | –
COc1ccc(NS(=O)(=O)c2cc(NC(=O)c3cc(F)c(F)cc3Cl)ccc2N2CCOCC2)cc1 | inconclusive: 2.33% | –

Single records, as listed above.
CCc1ccccc1NC(=S)NC1CC2CCC(C1)N2Cc1ccc(F)cc1 (stereo not given) is listed as activity change, negative = inhibition: inconclusive: 0.253%
Cc1cccc(C)c1N=C1SC(CC(=O)Nc2c(C)cccc2C)C(=O)N1CCc1ccccn1 (stereo not given) is listed as activity change, negative = inhibition: inactive: 0.144%
CCC(C)c1ccc(OCCn2cc(/C=N/NC(=O)CSc3nnc(C)s3)c3ccccc32)cc1 (stereo not given) is listed as Potency: inconclusive: 3.26 µM [falling, partial curve, poor fit]

Continuation.

Structure (SMILES) | activity change, negative = inhibition | Potency
N#C/C(=C\c1ccncc1)c1nc2ccccc2c(=O)[nH]1 | – | inconclusive: 11.2 µM [falling, partial curve, poor fit]
CCN1CCc2c(sc(N)c2C(N)=O)C1 | inactive: -6.11% | –
CCn1cc(C(=O)O)c(=O)c2cc(F)c(N3CCN(C(=S)NC(=O)c4ccccc4Br)CC3)cc21 | inactive: -0.338% | –
O=C(N/N=C/c1cccnc1)c1cc2ccccc2cc1O | – | inconclusive: 31.6 µM [falling, partial curve, poor fit]
COc1ccc(C(=O)/C=C/Nc2cc(C)on2)cc1 | – | inconclusive: 1.3 µM [rising, partial curve]
O=S(=O)(NCCCc1ccccc1)c1cccc2nsnc12 | inactive: 0.322% | –
N#Cc1c(N)n(CCCN2CCOCC2)c2nc3ccccc3nc12 | inactive: 6.33% | –
Cc1nn(-c2ccccc2)c(C)c1/C=N/NC(=O)CSc1nnc(SCc2ccccc2Cl)s1 | inactive: 2.73% | –
CCCCCn1c(N2CCC(C(N)=O)CC2)nc2c1c(=O)[nH]c(=O)n2C | inconclusive: -0.605% | –
O=S(=O)(Nc1cc(Sc2cccc3cccnc23)c(O)c2ccccc12)c1ccccc1 | inconclusive: 18.1% | –
COCC(C)NC(=O)CSc1nnc(-c2cccc(S(=O)(=O)N3CCCCC3)c2)o1 (stereo not given) | inactive: 11.5% | –
CCCOc1ccc(CCC(=O)O)cc1 | – | inconclusive: 6.31 µM [falling, single point]
COc1ccc(C(=O)NCc2oc(-c3ccccc3)cc2C(=O)O)cc1 | – | inconclusive: 3.66 µM [rising, full curve, poor fit]
CC(C)(CNc1ccc(C(F)(F)F)cc1[N+](=O)[O-])N1CCOCC1 | inconclusive: 7.12% | –
Cc1cc(C)c(S(=O)(=O)Nc2ccccc2-c2ccccc2)c(C)c1 | inconclusive: 17.9% | –
CC(C)(C)c1ccc(OCC(=O)N/N=C/C2CC=CCC2)cc1 (stereo not given) | – | inconclusive: 35.5 µM [falling, partial curve, poor fit]
CCOC(=O)C1=C(C)NC(C)=C(C(=O)OCC)C1C(=O)OCC(=O)N1CC(C)OC(C)C1 (stereo not given) | inconclusive: -8.44% | –
CSc1nnc(-c2sc3cc(Cl)ccc3c2Cl)n1C | inactive: 3.36% | –
CN(C)S(=O)(=O)c1ccc(Cl)c(NC(=O)COC(=O)/C=C/c2cnc3ccccc3n2)c1 | inconclusive: 7.62% | –
CN(C)/C=C/C(=O)c1ccc2noc(-c3ccccc3)c2c1 | – | inconclusive: 35.5 µM [rising, single point]
